# Measured values as given in PubChem BioAssay AID652054 (National Center for Advancing Translational Sciences (NCATS), 2013).
# The chains behind the UniProt entries cited, without tags or fusion partners.
# UniProt P35462, whole entry, looked up: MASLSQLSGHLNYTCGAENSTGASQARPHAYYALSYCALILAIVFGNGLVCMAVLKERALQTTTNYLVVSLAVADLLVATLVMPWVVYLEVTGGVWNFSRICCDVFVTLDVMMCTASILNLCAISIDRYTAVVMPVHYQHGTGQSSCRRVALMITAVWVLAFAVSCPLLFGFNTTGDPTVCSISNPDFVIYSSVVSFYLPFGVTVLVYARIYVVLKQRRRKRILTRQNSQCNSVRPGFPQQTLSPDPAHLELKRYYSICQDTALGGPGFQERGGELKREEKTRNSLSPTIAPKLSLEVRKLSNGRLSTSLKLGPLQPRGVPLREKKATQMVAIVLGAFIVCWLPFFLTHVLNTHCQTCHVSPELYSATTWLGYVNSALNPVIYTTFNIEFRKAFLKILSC
# Among all 360,000 compounds or so, about 9,100 (2.5%) were called active. This list was built around the results that the source calls inconclusive (neither active nor inactive); the mix of calls is not that of the screen. No stated cut-off is given here; in the data, active means max response below about -50%; inconclusive means no clear call, values can overlap the other calls; inactive means above that.
# Target: D(3) dopamine receptor (Homo sapiens) (UniProt P35462)
# Assay: qHTS of D3 Dopamine Receptor Antagonist: qHTS
# Conditions: D3R cells, DiscoveRx beta-arrestin luminescence, antagonist mode; stronger effect = lower value
# How it was run: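 Cells expressing the human receptor were seeded at 1500 cells/well, incubated overnight at 37 degrees C in 5% CO2, then exposed to library compounds with dopamine controls for 90 minutes at 37 degrees C before luminescent detection.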
# On the % scale 0 is the no-effect control and ±100 the full control effect.
row,SMILES,"max response, negative = inhibition"
1,O=C(C[C@H]1C[C@H](C(=O)N2CCOCC2)[C@@]2(CCC3CCCC3)c3[nH]c4cc(-c5ccco5)ccc4c3CCN2C1=O)NCCCn1ccnc1,inconclusive: -32.6%
2,CN(c1ccccc1)S(=O)(=O)c1ccc(C(=O)N2CCN(c3ccccc3Cl)CC2)cc1,inconclusive: -30%
3,O=S(=O)(NCc1ccc(C(F)(F)F)cc1)c1ccc(-n2cnnn2)cc1,inactive: -29.2%
4,CCCCn1c(N)c(N(CC(C)C)C(=O)C2CC(=O)N(c3ccc4c(c3)OCCO4)C2)c(=O)[nH]c1=O (stereo not drawn),active: -54.6%
5,O=C(c1ccc(COc2c(F)c(F)c(F)c(F)c2F)o1)N1CCN(Cc2ccc3c(c2)OCO3)CC1,inconclusive: -34.3%
6,CCc1nc2c(OCc3cc(Cl)cc(Cl)c3)cccn2c1N(C)C(=O)c1ccc(C)cc1,inconclusive: -48.1%
7,C[C@H](CO)N1C[C@H](C)[C@@H](CN(C)C(=O)c2ccc(F)cc2)Oc2cc(Br)ccc2S1(=O)=O,active: -95.2%
8,C=CCNc1nc2ccccc2nc1NS(=O)(=O)c1cccs1,inconclusive: -36.7%
9,C[C@H](CO)N1C[C@H](C)[C@@H](CN(C)C(=O)Nc2ccc(C(F)(F)F)cc2)Oc2ccc(NS(=O)(=O)c3ccccc3)cc2C1=O,inactive: 18%
10,O=S(=O)(c1ccc2c(c1)OCCO2)N1CCN(Cc2ccc3c(c2)OCO3)CC1,active: -50.4%
11,COC(=O)c1cc(C)nc2c1C(=O)C(=O)C=C2N1CCOCC1,active: -100%
12,COCCCN1C(=O)c2ccccc2C1C(=O)NC1CCCCCC1 (stereo not drawn),inconclusive: -46.2%
13,CCCNC(=S)NC1CC2CCC(C1)N2Cc1ccccc1 (stereo not drawn),active: -147%
14,CCN1CCN(c2nc(S(=O)(=O)c3ccc(C)cc3)c(Cl)s2)CC1,inconclusive: -46.9%
15,COc1ccc([N+](=O)[O-])cc1NCc1c(F)cccc1F,inactive: 13.6%
16,O=c1oc2ccccc2nc1/C=C(O)/C=C\c1ccccc1,active: -55.5%
17,NC(=S)Nc1ccc(S(=O)(=O)c2ccc(NC(N)=S)cc2)cc1,inconclusive: -38.5%
18,COc1ccc(NC(=S)N(CCCN2CCC(C)CC2)Cc2cccs2)cc1Cl,active: -79.8%
19,C=CCn1c2ccccc2c2nnc(SCCN3CCCCC3)nc21,inconclusive: -38.1%
20,COc1ccc(C(CCNCc2ccc(OC)c(OC)c2)c2ccc(F)cc2)cc1 (stereo not drawn),inactive: 8.4%
21,COc1ccccc1N1CCN(C2CCCN(S(=O)(=O)c3cccc(Cl)c3)C2)CC1 (stereo not drawn),inconclusive: -47%
22,C=CCNc1sc(C(=O)c2cccs2)c(N)c1C#N,inconclusive: -44.4%

row,SMILES,"max response, negative = inhibition"
1,CCCOC(=O)N[C@@H]1C(=O)N2C(C(=O)OCCC)=C(C)CS[C@H]12,active: -53.2%
2,CC(C)C1C(=O)N(Cc2cn(CCC3OCCO3)nn2)CCS(=O)(=O)N1Cc1ccc(-c2ccc(Cl)c(Cl)c2)cc1 (stereo not drawn),inactive: -9.73%
3,CC(C)(C)c1ccc(OCC(=O)N2CCN(C=O)CC2)cc1,inconclusive: -40.1%
4,O=c1oc2cc(O)ccc2c2ccccc12,inconclusive: -30.6%
5,CCOC(=O)C1CCN(S(=O)(=O)c2cc(F)ccc2OC)CC1,inactive: 2.14%
6,CCOC(=O)c1cc2c(ccn2C)n1CC(=O)N1CCC(C)CC1,inconclusive: -42%
7,NS(=O)(=O)c1ccc(NC(=S)NCc2ccccc2Cl)cc1,active: -67.8%
8,Cc1ccccc1C(=O)Nc1cc(-c2cc(C(C)(C)C)oc2C)nn1C,inactive: 13.5%
9,c1ccc2c(-c3[nH]ncc3CNCCCn3ncc4ccccc43)cccc2c1,inconclusive: -48.3%
10,CCC(=O)N1CCN(c2ccc(NC(=O)COc3ccc(C)cc3C)cc2)CC1,inactive: 11.1%
11,COc1cccc(N2CCN(C(C)C(=O)NC34CC5CC(CC(C5)C3)C4)CC2)c1 (stereo not drawn),active: -53.5%
12,O=[N+]([O-])c1ccc(COc2cccc(CN3CCCCC3)c2)cc1,inconclusive: -42.6%
13,Cc1ccc(-c2nc3ccccc3[nH]2)cc1NC(=S)NC(=O)c1ccccc1Br,active: -50.5%
14,CNC(=O)c1c(Cl)cnn1-c1ccc(C)cc1,inactive: 3.69%
15,O=C(/C=C/Nc1ccc(F)cc1)c1cccs1,inconclusive: -30.6%
16,Nc1sc(-c2ccccc2)n[n+]1Cc1cccc2cccnc12,inactive: 1.44%
17,CCc1ccc(-n2c(Cc3ccccc3)n[nH]c2=S)cc1,inconclusive: -31.4%
18,CCc1nn(CC(=O)NCCCN(CC)Cc2ccccc2)c(=O)c2cc3sccc3n12,inconclusive: -35.3%
19,Cc1[nH]n2c(=O)c(C#N)c(-c3ccccc3)nc2c1-c1ccccc1,active: -59.9%
20,CC1CCCN(C(=O)C(Cc2ccccc2)n2cccc2)C1 (stereo not drawn),inconclusive: -32.6%
21,O=C(CN1CCCCCCC1)Nc1cc(Cl)cc(Cl)c1,inconclusive: -39.8%

# Taken from above:
# `O=C(/C=C/Nc1ccc(F)cc1)c1cccs1` – max response, negative = inhibition: inconclusive: -30.6%
# `CC1CCCN(C(=O)C(Cc2ccccc2)n2cccc2)C1` (stereo not drawn) – max response, negative = inhibition: inconclusive: -32.6%
